Experimental data reported in US20260200999A1, “SYNTHETIC TRANSCRIPTION FACTORS” (ETH ZURICH, priority 2022, published 2026).
For some of these results: Negatives hold for the conditions tested. Tags and fusion partners may be left off the protein sequences shown. For some of these results: The exact form of at least one protein or probe is not confirmed.

Key:
Test in all cases: activity in cells
[1] = molecular target: T1, MTF (MTERF1 58-399::RelA 430-551) (Homo sapiens) (UniProt Q99551); conditions: protein in cells, protein details: RelA 430-551 TAD fusion
T1 sequence: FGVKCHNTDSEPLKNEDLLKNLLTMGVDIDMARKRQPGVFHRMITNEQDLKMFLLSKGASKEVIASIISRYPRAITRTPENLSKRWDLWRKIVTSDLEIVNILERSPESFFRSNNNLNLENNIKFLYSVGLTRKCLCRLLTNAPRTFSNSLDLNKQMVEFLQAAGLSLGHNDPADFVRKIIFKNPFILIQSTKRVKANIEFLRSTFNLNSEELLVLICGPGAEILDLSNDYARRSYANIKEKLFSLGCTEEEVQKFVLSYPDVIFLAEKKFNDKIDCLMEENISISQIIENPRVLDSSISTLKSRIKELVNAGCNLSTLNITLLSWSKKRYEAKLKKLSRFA

[2] = molecular target: T2, MTERF1 58-399::RelA 342-551 (Homo sapiens) (UniProt Q99551); conditions: stronger than RelA 430-551 fusion, HEK293; protein in cells; protein details: TAD fusion
T2 sequence: T1 sequence

[3] = molecular target: T3, MTERF1 58-399::RelA 361-551 (Homo sapiens) (UniProt Q99551); conditions: stronger than RelA 430-551 fusion, HEK293; protein in cells; protein details: TAD fusion
T3 sequence: T1 sequence

[4] = molecular target: T4, MTERF1 58-399::VP64 (Homo sapiens) (UniProt Q99551); conditions: lower reporter expression than RelA 430-551 fusion, HEK293; protein in cells; protein details: VP64 fusion
T4 sequence: T1 sequence

[5] = mCerulean reporter, HeLa and HEK293

“TAAGATGGCAGAGCCCGGTAATAAGGTGCGATTAAGATGGCAGAGCCCGGTAATAAGGTGCGATTAAGATGGCAGAGCCCGGTAATAAGGTGCGATTAAGATGGCAGAGCCCGGTAATAAGGTGCGATTAAGATGGCAGAGCCCGGTAAT (double strand) [5xRE, 10 bp spacing]” was tested, and the “activity on this sequence” value ([1]; HeLa similar to 6 bp spacing, very little signal in HEK293) was “active”.

With “TAAGATGGCAGAGCCCGGTAATTGCGATTAAGATGGCAGAGCCCGGTAATTGCGATTAAGATGGCAGAGCCCGGTAATTGCGATTAAGATGGCAGAGCCCGGTAATTGCGATTAAGATGGCAGAGCCCGGTAATTGCGATTAAGATGGCAGAGCCCGGTAATTGCGATTAAGATGGCAGAGCCCGGTAATTGCGATTAAGATGGCAGAGCCCGGTAATTGCGATTAAGATGGCAGAGCCCGGTAAT (double strand) [9xRE, 6 bp spacing]” the “activity on this sequence” value [1, 5] was “active”.

In the case of “TAAGATGGCAGAGCCCGGTAATTAAGATGGCAGAGCCCGGTAATTAAGATGGCAGAGCCCGGTAATTAAGATGGCAGAGCCCGGTAATTAAGATGGCAGAGCCCGGTAAT (double strand) [5xRE, 0 bp spacing]”, the “activity on this sequence” value [2] is reported as “active”, the “activity on this sequence” value [3] is reported as “active” and the “activity on this sequence” value ([1]; mCerulean reporter, strongest spacing variant in HeLa) is reported as “active”. For the same sequence, the “activity on this sequence” value [4] was “active”.

In the case of “TAAGATGGCAGAGCCCGGTAATTAAGATGGCAGAGCCCGGTAATGACTCATACTCTAGAGGGTATATAATGGGGGCC (double strand) [sense-2-0-8 promoter]”, the “activity on this sequence” value ([1]; mCitrine, HEK293, as much expression as sense-5-9-8, none without MTF) is reported as “active”.

In the case of “TAAGATGGCAGAGCCCGGTAATTGCGATTAAGATGGCAGAGCCCGGTAATTGCGATTAAGATGGCAGAGCCCGGTAATTGCGATTAAGATGGCAGAGCCCGGTAATTGCGATTAAGATGGCAGAGCCCGGTAAT (double strand) [5xRE, 6 bp spacing]”, the “activity on this sequence” value ([1]; mCerulean reporter, HeLa and HEK293, highest spacing variant in HEK293) is reported as “active”.

In the case of “TAAGATGGCAGAGCCCGGTAATTGCGATTAAGATGGCAGAGCCCGGTAATTGCGATTAAGATGGCAGAGCCCGGTAAT (double strand) [3xRE, 6 bp spacing]”, the “activity on this sequence” value ([1]; mCerulean reporter, HeLa and HEK293, signal rises with RE number in HEK293) is reported as “active”.

In the case of “TAAGATGGCAGAGCCCGGTAATTGCGATTAAGATGGCAGAGCCCGGTAATTGCGATTAAGATGGCAGAGCCCGGTAATTGCGATTAAGATGGCAGAGCCCGGTAATTGCGATTAAGATGGCAGAGCCCGGTAATTGCGATTAAGATGGCAGAGCCCGGTAATTGCGATTAAGATGGCAGAGCCCGGTAAT (double strand) [7xRE, 6 bp spacing]”, the “activity on this sequence” value [1, 5] is reported as “active”.

For “TAAGATGGCAGAGCCCGGTAATAGAGTGCGATAAGATGGCAGAGCCCGGTAATAGAGTGCGATAAGATGGCAGAGCCCGGTAATAGAGTGCGATAAGATGGCAGAGCCCGGTAATAGAGTGCGATAAGATGGCAGAGCCCGGTAATGACTCATACTCTAGAGGGTATATAATGGGGGCC (double strand) [sense-5-9-8 promoter]”, the “activity on this sequence” value ([1]; mCitrine, HEK293, none without MTF) was “active”.

With “TAAGATGGCAGAGCCCGGTAATTGCGATTAAGATGGCAGAGCCCGGTAATTGCGATTAAGATGGCAGAGCCCGGTAATTGCGATTAAGATGGCAGAGCCCGGTAATTGCGATTAAGATGGCAGAGCCCGGTAATTGCGATTAAGATGGCAGAGCCCGGTAATTGCGATTAAGATGGCAGAGCCCGGTAATTGCGATTAAGATGGCAGAGCCCGGTAATTGCGATTAAGATGGCAGAGCCCGGTAATTGCGATTAAGATGGCAGAGCCCGGTAATTGCGATTAAGATGGCAGAGCCCGGTAAT (double strand) [11xRE, 6 bp spacing]” the “activity on this sequence” value ([1]; mCerulean reporter, maximum signal in HeLa) was “active”.

For “ATTCTACCGTCTCGGGCCATTAAAGGCATATGATTCTACCGTCTCGGGCCATTAAAGGCATATGATTCTACCGTCTCGGGCCATTAAAGGCATATGATTCTACCGTCTCGGGCCATTAAAGGCATATGATTCTACCGTCTCGGGCCATTA (double strand) [5x scrambled RE, 10 bp spacing]”, the “activity on this sequence” value ([1]; no mCerulean expression in HeLa or HEK293, variant of 5xRE, 10 bp spacing) was “not active”.
